Results reported in patent US20100324282A1, “METHOD FOR SEPARATING HETEROPOLYACID” (TOYOTA JIDOSHA KABUSHIKI KAISHA, priority 2009, published 2010).
Some entries share one result that the patent states for a list of compounds.

Experiment: Heating reaction test with saturated aqueous solution of phosphotungstic acid: distribution of glucose
Assay type: physicochemical
Settings: Second phase (aqueous phase), saturated aqueous solution of phosphotungstic acid triacontahydrate 30 g + glucose 5 g, heated
Method: A saturated aqueous solution containing 30 g of phosphotungstic acid triacontahydrate was mixed with 5 g of glucose, the mixture was heated, and various types of the selected organic solvents were then added thereto in amounts 3 times greater than the minimal amount of the solvent necessary to dissolve phosphotungstic acid (by volume). The resultant was stirred and allowed to stand, followed by phase separation. Samples were dried using a centrifuge, the phosphotungstic acid content in the dried specimens was analyzed by the ICP mass spectrometer, and glucose content was assayed via liquid chromatography.

| Distribution ratio of glucose (%) (listed as 1-octanol) | Distribution ratio of glucose (%) (listed as 2-octanol) | Structure (SMILES) |
| --- | --- | --- |
| ≥ 99 | – | CCCCCCCCO [1-Octanol] |
| – | ≥ 99 | CCCCCCC(C)O (centres unmarked) [2-Octanol] |
